Measurements from patent publication US20110144155A1, “8-HYDROXYQUINOLINE DERIVATIVES FOR THE TREATMENT OF HEMATOLOGICAL MALIGNANCIES” (priority 2008, published 2011).
Some results were stated once for a whole list of compounds, not compound by compound.

Tested on: solid tumor cell lines
Test: Cell viability panel, solid tumor cell lines
Settings: 72 hours; MTS assay

SMILES	LD50 in solid tumor cell lines relative to leukemia and myeloma cell lines
Nc1ccc(O)c2ncccc12 [5AHQ, 5-amino-8-hydroxyquinoline]	2-3 fold
O=[N+]([O-])c1ccc(O)c2ncccc12 [HNQ, 8-hydroxy-5-nitroquinoline]	2-3 fold
